Data source: PubChem BioAssay AID652259 (Drosophila RNAi Screening Center, 2013)
Aim: 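Genome-wide hunt for genes that control Wingless pathway activity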 (primary screen). Cell system: Drosophila clone 8 imaginal disc epithelial cells. Knock-down reagent: long dsRNA against Drosophila genes. Challenge: pathway stimulated by co-transfected Wingless expression plasmid. Detection: 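Dual luciferase reads per well after Wingless plasmid stimulation: reporter firefly light and Renilla control light; activity is firefly divided by Renilla, a ratio not deposited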. Direction: firefly reporter light: higher = more Wg reporter light, before normalisation; Renilla control light: higher = more transfected or surviving cells. Active means: 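a knock-down is a candidate when at least two out of four statistical tests show it departing from its plate mean; one test alone signals a weak candidate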. Meaning of the calls: active = candidate regulator (raises or lowers reporter); inactive = not a candidate.
The deposit covers about 22,000 reagents; this is an unselected part of those that have a named target and a result. In the full data, 233 (1.1%) got an active call. 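Light values are raw, unnormalised plate reads; the ratio scores behind the reporter calls were not deposited.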 Names joined by + are all predicted targets of the reagent. Not stated in the record: the amount of reagent, the time to read-out, the dose of the treatment.

| gene | dsRNA | reporter change call, replicate 1 | firefly reporter light, replicate 1 | firefly reporter light, replicate 2 | Renilla control light, replicate 1 | Renilla control light, replicate 2 | activity call |
| --- | --- | --- | --- | --- | --- | --- | --- |
| CG1850 | DRSC06762 | – | 2242 | 5580 | 529 | 2131 | inactive |
| Gr39a | DRSC01841 | – | 13200 | – | 9749 | – | inactive |
| Gr39a | DRSC01842 | – | 15945 | – | 9928 | – | inactive |
| gb | DRSC15961 | – | 2934 | 5907 | 1488 | 2339 | inactive |
| Tom20 | DRSC10899 | – | 9018 | – | 3857 | – | inactive |
| Cks30A | DRSC03292 | – | 6573 | – | 2368 | – | inactive |
| Tsp42Ej | DRSC06113 | – | 6964 | – | 2971 | – | inactive |
| CG32795 | DRSC18609 | – | 17970 | – | 12723 | – | inactive |
| CG32795 | DRSC18610 | – | 19350 | – | 15097 | – | inactive |
| Cyp6a2 | DRSC05014 | – | 3062 | 11177 | 387 | 3345 | inactive |
| CG8768 | DRSC07259 | – | 15702 | – | 3124 | – | inactive |
| Efa6 | DRSC13569 | – | 2896 | – | 1139 | – | inactive |
| Efa6 | DRSC15312 | – | 21985 | – | 7632 | – | inactive |
| Efa6 | DRSC16141 | – | 26216 | – | 18220 | – | inactive |
| CG14767 | DRSC06500 | – | 11349 | – | 3576 | – | inactive |
| Pxd | DRSC16805 | – | 8200 | – | 3130 | – | inactive |
| CG7376 | DRSC10829 | – | 4566 | – | 2145 | – | inactive |
| Ir94d | DRSC21568 | – | 4.83e5 | 4.67e5 | 2.33e5 | 1.61e5 | inactive |
| CG13050 | DRSC09931 | – | 9671 | – | 4163 | – | inactive |
| CG6106 | DRSC19971 | – | 19544 | – | 8439 | – | inactive |
| slou | DRSC17058 | – | 36045 | – | 6874 | – | inactive |
| wit | DRSC08741 | – | 4528 | – | 2200 | – | inactive |
| Nle | DRSC00763 | – | 5559 | 10708 | 1898 | 3577 | inactive |
| CG2006 + Spase12 | DRSC14316 | – | 5872 | – | 2652 | – | inactive |
| Ptth | DRSC00356 | – | 3354 | 7078 | 1232 | 2532 | inactive |
| Pmm2 | DRSC09780 | – | 7641 | – | 2337 | – | inactive |
| gnu | DRSC10497 | – | 3464 | – | 1618 | – | inactive |
| rl | DRSC07833 | – | 7730 | – | 3904 | – | inactive |
| rl | DRSC20742 | – | 11202 | – | 8116 | – | inactive |
| rl | DRSC21814 | – | 5.78e5 | 5.01e5 | 2.47e5 | 1.93e5 | inactive |
| PDZ-GEF | DRSC03231 | – | 1734 | 7090 | 352 | 3346 | inactive |
| Ance-3 | DRSC02648 | – | 3579 | 9164 | 1305 | 3379 | inactive |
| Ance-3 | DRSC02649 | – | 2567 | 6720 | 1497 | 3350 | inactive |
| CG6209 | DRSC06968 | – | 9344 | – | 3233 | – | inactive |

Part of the list above, limited to “firefly reporter light, replicate 1”:
Gr39a [DRSC01842] = 15945
gb [DRSC15961] = 2934
Tom20 [DRSC10899] = 9018
Cks30A [DRSC03292] = 6573
Tsp42Ej [DRSC06113] = 6964
CG32795 [DRSC18609] = 17970
CG32795 [DRSC18610] = 19350
Cyp6a2 [DRSC05014] = 3062
CG8768 [DRSC07259] = 15702
Efa6 [DRSC13569] = 2896

The list goes on:
| gene | dsRNA | reporter change call, replicate 1 | firefly reporter light, replicate 1 | firefly reporter light, replicate 2 | Renilla control light, replicate 1 | Renilla control light, replicate 2 | activity call |
| --- | --- | --- | --- | --- | --- | --- | --- |
| LysP | DRSC08676 | – | 3908 | – | 1706 | – | inactive |
| CG12811 | DRSC14549 | – | 13932 | – | 3010 | – | inactive |
| CG15471 | DRSC18054 | – | 21895 | – | 10978 | – | inactive |
| CG14931 | DRSC02413 | – | 3680 | 5952 | 1767 | 2965 | inactive |
| CG7565 | DRSC10881 | – | 3728 | – | 1414 | – | inactive |
| Or46a + asRNA:CR43467 | DRSC07489 | – | 4176 | 11140 | 1627 | 3552 | inactive |
| Or46a + asRNA:CR43467 | DRSC07490 | – | 4311 | 4355 | 1180 | 2465 | inactive |
| Or46a + asRNA:CR43467 | DRSC21590 | – | 5.97e5 | 5.41e5 | 2.59e5 | 1.71e5 | inactive |
| Sugb | DRSC10815 | – | 4295 | – | 1588 | – | inactive |
| obe | DRSC15736 | – | 5427 | – | 2320 | – | inactive |
| oxt | DRSC08522 | – | 13803 | – | 4288 | – | inactive |
| Pkc98E | DRSC16791 | – | 3552 | 4907 | 1377 | 743 | inactive |
| JMJD6 | DRSC15787 | – | 3897 | 7288 | 1250 | 2791 | inactive |
| CR31054 | DRSC22134 | – | 8.53e5 | 9.84e5 | 3.99e5 | 4.99e5 | inactive |
| EbpII | DRSC04637 | – | 22944 | – | 6423 | – | inactive |
| EbpII | DRSC22484 | – | 7.91e5 | 8.19e5 | 4.08e5 | 11658 | inactive |
| Aladin | DRSC18121 | – | 5549 | 7048 | 1088 | 3052 | inactive |
| CG15461 | DRSC20532 | – | 19995 | – | 8744 | – | inactive |
| slgA | DRSC20586 | – | 3585 | 10208 | 1611 | 3478 | inactive |
| CG33203 | DRSC14874 | – | 9372 | – | 3890 | – | inactive |
| CG33203 | DRSC14876 | – | 8608 | – | 5648 | – | inactive |
| CG33203 | DRSC14877 | – | 8978 | 6.68e5 | 6487 | 3.67e5 | inactive |
| usp | DRSC18847 | – | 25958 | – | 13805 | – | inactive |
| Rbp6 | DRSC09456 | – | 3609 | – | 1243 | – | inactive |
| Rbp6 | DRSC09462 | – | 4235 | – | 1276 | – | inactive |
| Rbp6 | DRSC10072 | – | 7994 | – | 2821 | – | inactive |
| Rbp6 | DRSC10073 | – | 8598 | – | 3197 | – | inactive |
| Rbp6 | DRSC10662 | – | 6588 | – | 2040 | – | inactive |
| axed | DRSC08833 | – | 3152 | – | 1428 | – | inactive |
| axed | DRSC10982 | Wg reporter activity lowered | 656 | 5964 | 973 | 3069 | inactive |
| 140up | DRSC12634 | – | 5831 | – | 2070 | – | inactive |
| CG2225 | DRSC03722 | – | 7563 | – | 2132 | – | inactive |
| CG2225 | DRSC03723 | – | 2971 | 7817 | 645 | 2900 | inactive |
| Grl36a | DRSC21748 | – | 4.64e5 | 5.57e5 | 2.28e5 | 2.11e5 | inactive |
| CG17782 | DRSC15267 | – | 21956 | – | 13624 | – | inactive |
| CG42336 | DRSC05273 | – | 15124 | – | 12572 | – | inactive |
| CG42336 | DRSC06332 | – | 4138 | – | 2067 | – | inactive |
| CG42336 | DRSC06333 | – | 8386 | – | 3952 | – | inactive |
| Nepl11 | DRSC12333 | – | 8362 | – | 3451 | – | inactive |
